At least one structure is not confirmed: it was looked up by name or label, or the drawing left a doubt.
Test system: 3T3-L1 preadipocytes
Experiment: Insulin-sensitizing activity in 3T3-L1 preadipocyte model, triglyceride accumulation in cells as indication of differentiation
Assay type: cell-based
Details: average data in 3 pores (Rosiglitazone: n = 22, mean ± SE)
Procedure: Insulin-sensitizing agents can promote the differentiation of preadipocytes toward adipocytes, thus insulin-sensitizing agents could be identified according to the differentiation of pre-adipocytes. Following the methods reported in the literature [Kletzin B F. Mol. Pharm. 1991, 41, 393], the insulin-sensitizing activities of the compounds of formula (I) of the present invention were evaluated in 3T3-L1 pradipocyte model with triglyceride accumulation in cells as the indication of differentiation.
The 3T3-L1 preadipocytes were incubated in DMEM (Dulbecco's Modified Eagle's Medium) containing 10% NBS (newborn calf serum) and subcultured every 3 days. The calls were transferred to 24-pore plates, and after the pores were filled completely the cells were treated with IBMX (isobutylmethylxanthine) (0.5 mmol/L), DEX (dexamethasone) (1 μmol/L) and insulin (1.0 μmol/L) for 48 h. Different amounts of test compounds were incubated with the cells until the end of the experiment. Cells were collected and the contents of triglyceride and protein therein were determined by colorimetry. Enhancements of triglyceride in cells after drug-administrating were calculated.
The positive control group was rosiglitazone, and the solvent control group was a culturing medium containing 0.1% of DMSO. The enhancement of triglyceride in cells was determined in three different concentrations (0.01, 0.1, 1 μmol/L) of the tested compounds.

CN(CCOc1ccc(CC2SC(=O)NC2=O)cc1)c1ccccn1 (stereo not drawn) [Rosiglitazone, rosiglitazone, reference compound]
The Percentage of Triglyceride Increased in 3T3-L1 Cells (concentration 0.01 μmol/L): 27.20 ± 2.35% | The Percentage of Triglyceride Increased in 3T3-L1 Cells (concentration 0.1 μmol/L): 34.93 ± 2.14% | The Percentage of Triglyceride Increased in 3T3-L1 Cells (concentration 1 μmol/L): 39.21 ± 2.27%
